Record: PubChem BioAssay AID493246 (Drosophila RNAi Screening Center, 2011)
Aim: 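Genome-wide search for dsRNAs that reduce cell number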 (primary screen). Cells: Drosophila Kc and S2R+ cells. Reagents: long dsRNA against Drosophila genes. Measured: 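Raw, unnormalised count of remaining cells in each well; per-plate z-scores of cell number underlie the calls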. Scale: Kc cell number and S2R+ cell number: higher = more cells remaining. Call rule: 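Active when the per-plate z-score of cell number is 3 or more in the direction of fewer cells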.
The screen tested about 21,000 reagents; this is an unselected part of those that have a named target and a result. In the full data, 429 (2%) got an active call. 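Values are raw and not normalised between plates; calls rest on per-plate z-scores that were not deposited.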 Entries without a mark were called inactive. Names joined by + are all predicted targets of the reagent. Not given: the amount of reagent, the time to read-out.

| Target gene | dsRNA | Kc cell number, rep 1 | Kc cell number, rep 2 | S2R+ cell number, rep 1 | S2R+ cell number, rep 2 |
| --- | --- | --- | --- | --- | --- |
| CG15368 | DRSC18040 | 1.53e6 | 1.51e6 | 9.77e5 | 1.11e6 |
| Lkb1 | DRSC16481 | 1.54e6 | 1.57e6 | 1.22e6 | 1.28e6 |
| CG31075 | DRSC16016 | 1.44e6 | 1.50e6 | 9.91e5 | 1.09e6 |
| pr | DRSC03596 | 1.54e6 | 1.72e6 | 1.37e6 | 1.45e6 |
| CG12985 | DRSC19505 | 1.49e6 | 1.48e6 | 1.06e6 | 1.15e6 |
| Aasdh | DRSC03467 | 1.75e6 | 1.86e6 | 1.34e6 | 1.46e6 |
| CG18278 + CG30059 | DRSC05418 | 1.51e6 | 1.43e6 | 9.52e5 | 1.17e6 |
| fd3F + CG42499 (retired record) | DRSC18160 | 1.48e6 | 1.48e6 | 9.99e5 | 1.13e6 |
| fd3F + CG42499 (retired record) | DRSC18161 | 1.54e6 | 1.53e6 | 1.05e6 | 1.22e6 |
| Lon | DRSC11049 | 1.41e6 | 1.47e6 | 1.25e6 | 1.27e6 |
| CG10226 | DRSC09715 | 1.33e6 | 1.44e6 | 1.21e6 | 1.18e6 |
| CG14219 | DRSC19576 | 1.60e6 | 1.64e6 | 1.14e6 | 1.29e6 |
| grp + CG31782 (retired record) | DRSC03541 | 1.28e6 | 1.37e6 | 1.35e6 | 1.39e6 |
| casp | DRSC07164 | 1.38e6 | 1.40e6 | 1.13e6 | 1.20e6 |
| Trap1 | DRSC05019 | 1.51e6 | 1.66e6 | 1.19e6 | 1.16e6 |
| CG5597 | DRSC04517 | 1.57e6 | 1.63e6 | 1.02e6 | 1.09e6 |
| bou | DRSC17924 | 1.44e6 | 1.47e6 | 1.06e6 | 1.15e6 |
| CG6415 | DRSC02954 | 1.10e6 | 1.09e6 | 9.51e5 | 8.26e5 |
| Cyp316a1 | DRSC11130 | 1.32e6 | 1.31e6 | 1.07e6 | 1.17e6 |
| Arfip | DRSC15179 | 1.49e6 | 1.55e6 | 1.15e6 | 1.19e6 |
| Sld5 | DRSC14892 | 1.58e6 | 1.74e6 | 1.06e6 | 1.11e6 |
| betaTub60D | DRSC04673 | 1.54e6 | 1.60e6 | 1.27e6 | 1.26e6 |
| CG11112 | DRSC06038 | 1.61e6 | 1.64e6 | 1.35e6 | 1.45e6 |
| Rassf | DRSC15612 | 1.54e6 | 1.57e6 | 1.21e6 | 1.25e6 |
| CG14414 | DRSC19599 | 1.59e6 | 1.59e6 | 1.17e6 | 1.22e6 |
| Cyp6a22 | DRSC07382 | 1.40e6 | 1.49e6 | 9.90e5 | 1.02e6 |
| mfr | DRSC10543 | 1.34e6 | 1.35e6 | 1.23e6 | 1.28e6 |
| Mfap1 | DRSC08154 | 1.30e6 | 1.39e6 | 9.26e5 | 9.76e5 |
| CG11596 | DRSC18540 | 4.96e5 | – | 7.99e5 | – |
| Gbp1 | DRSC06592 | 1.57e6 | 1.63e6 | 1.25e6 | 1.31e6 |
| Not3 | DRSC04908 | 1.19e6 | 1.30e6 | 9.33e5 | 9.99e5 |
| CG13807 | DRSC08342 | 1.42e6 | 1.31e6 | 9.74e5 | 1.21e6 |

Ordered by “S2R+ cell number, rep 2” (ascending): some entries from above
| Target gene | dsRNA | Kc cell number, rep 1 | Kc cell number, rep 2 | S2R+ cell number, rep 1 | S2R+ cell number, rep 2 |
| --- | --- | --- | --- | --- | --- |
| CG6415 | DRSC02954 | 1.10e6 | 1.09e6 | 9.51e5 | 8.26e5 |
| Sld5 | DRSC14892 | 1.58e6 | 1.74e6 | 1.06e6 | 1.11e6 |
| bou | DRSC17924 | 1.44e6 | 1.47e6 | 1.06e6 | 1.15e6 |
| Cyp316a1 | DRSC11130 | 1.32e6 | 1.31e6 | 1.07e6 | 1.17e6 |
| Arfip | DRSC15179 | 1.49e6 | 1.55e6 | 1.15e6 | 1.19e6 |

The results go on:
| Target gene | dsRNA | Kc cell number, rep 1 | Kc cell number, rep 2 | S2R+ cell number, rep 1 | S2R+ cell number, rep 2 |
| --- | --- | --- | --- | --- | --- |
| CG30159 | DRSC04981 | 1.33e6 | 1.42e6 | 1.18e6 | 1.26e6 |
| CG31533 | DRSC13018 | 1.41e6 | 1.68e6 | 1.08e6 | 1.28e6 |
| Hibch | DRSC15705 | 1.66e6 | 1.57e6 | 1.23e6 | 1.40e6 |
| CG8191 + CG12379 | DRSC19451 | 1.71e6 | 1.70e6 | 1.22e6 | 1.32e6 |
| CG9287 | DRSC03186 | 1.49e6 | 1.50e6 | 1.03e6 | 1.12e6 |
| CG1137 | DRSC12529 | 1.36e6 | 1.50e6 | 1.22e6 | 1.35e6 |
| mahe | DRSC17755 | 5.38e5 | – | 8.24e5 | – |
| CG15330 | DRSC18014 | 1.52e6 | 1.50e6 | 1.03e6 | 1.14e6 |
| Smyd4-4 | DRSC05956 | 1.24e6 | 1.34e6 | 1.06e6 | 1.10e6 |
| CG13810 | DRSC08344 | 1.48e6 | 1.34e6 | 1.04e6 | 1.37e6 |
| Hil | DRSC05989 | 1.43e6 | 1.44e6 | 1.14e6 | 1.18e6 |
| Hil | DRSC06395 | 1.58e6 | 1.37e6 | 1.02e6 | 1.30e6 |
| CG31855 | DRSC02968 | 1.37e6 | 1.52e6 | 1.04e6 | 1.23e6 |
| Polr1A | DRSC07535 | 1.48e6 | 1.53e6 | 1.19e6 | 1.25e6 |
| opa | DRSC12384 | 1.77e6 | 2.15e6 | 1.26e6 | 1.31e6 |
| CG14277 | DRSC02380 | 1.45e6 | 1.55e6 | 1.19e6 | 1.28e6 |
| CG9173 | DRSC08635 | 1.58e6 | 1.49e6 | 1.05e6 | 1.41e6 |
| CG32440 | DRSC11480 | 1.33e6 | 1.50e6 | 1.10e6 | 1.29e6 |
| CG40486 | DRSC20619 | 1.69e6 | 1.74e6 | 1.04e6 | 1.18e6 |
| Gfrl | DRSC15197 | 1.44e6 | 1.60e6 | 1.14e6 | 1.19e6 |
| Gfrl | DRSC15199 | 1.39e6 | 1.34e6 | 1.08e6 | 1.18e6 |
| Gfrl | DRSC15565 | 1.50e6 | 1.60e6 | 1.13e6 | 1.21e6 |
| Gfrl | DRSC15719 | 1.31e6 | 1.29e6 | 1.08e6 | 1.19e6 |
| jhamt | DRSC01985 | 1.65e6 | 1.59e6 | 1.28e6 | 1.49e6 |
| CG7054 | DRSC16185 | 1.56e6 | 1.70e6 | 1.17e6 | 1.21e6 |
| CG18599 | DRSC15357 | 1.49e6 | 1.50e6 | 1.01e6 | 1.16e6 |
| CG13712 | DRSC08321 | 1.62e6 | 1.58e6 | 1.04e6 | 1.18e6 |
